# In PubChem BioAssay AID588590 (National Center for Advancing Translational Sciences (NCATS), 2011):
# Chains of the proteins cited; added tags and fusions are not shown. Lines headed by an entry give the natural chain unless they say otherwise; changes in a name come on top.
# UniProt Q9UNA4: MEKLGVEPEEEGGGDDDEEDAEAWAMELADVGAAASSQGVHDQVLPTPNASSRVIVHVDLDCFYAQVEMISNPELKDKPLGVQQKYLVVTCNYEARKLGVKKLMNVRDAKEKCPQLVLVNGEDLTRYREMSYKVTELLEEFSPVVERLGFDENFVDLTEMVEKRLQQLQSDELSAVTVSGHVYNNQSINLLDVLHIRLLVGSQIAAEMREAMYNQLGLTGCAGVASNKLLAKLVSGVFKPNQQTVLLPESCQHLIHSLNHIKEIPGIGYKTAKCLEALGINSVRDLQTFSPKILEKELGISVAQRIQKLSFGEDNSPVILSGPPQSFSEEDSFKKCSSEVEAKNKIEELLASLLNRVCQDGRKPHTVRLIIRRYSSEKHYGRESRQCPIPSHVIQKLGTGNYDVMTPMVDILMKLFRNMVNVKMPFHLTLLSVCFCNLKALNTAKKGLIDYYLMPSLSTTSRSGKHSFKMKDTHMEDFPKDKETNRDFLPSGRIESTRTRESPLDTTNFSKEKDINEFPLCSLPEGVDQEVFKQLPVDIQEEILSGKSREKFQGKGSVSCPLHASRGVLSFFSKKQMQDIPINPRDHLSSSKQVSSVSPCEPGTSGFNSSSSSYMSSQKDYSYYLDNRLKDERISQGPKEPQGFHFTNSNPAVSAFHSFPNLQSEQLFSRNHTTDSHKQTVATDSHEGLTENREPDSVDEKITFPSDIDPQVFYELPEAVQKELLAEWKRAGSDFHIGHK
# In all, about 390,000 compounds went through this assay and about 4,000 (1%) were called active. The shares of active, inactive and inconclusive entries below differ from those in the screen. Calls come from the whole dose curve; as a rule, active = well fitted inhibition curve with a large enough effect; inconclusive = small, poorly fitted or top-dose-only effect, or another doubt; inactive = no such curve, though single readings can be large or run the other way. A potency beside an inconclusive call is a rough fit, not a confirmed value.
# Target: DNA polymerase iota (Homo sapiens) (UniProt Q9UNA4)
# Test: qHTS for Inhibitors of Polymerase Iota
# Conditions: Pol iota fluorescent replication assay, 10 min; series mostly up to 115 µM
# Procedure, shortened: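 Pol iota at 10 nM preincubated 15 min with compounds at room temperature; reaction started with fluorescent substrate, 50 nM final. Fluorescence read kinetically at 0 and 10 min; buffer-only wells as negative control.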
# Potency is the fitted concentration of half-maximal effect.
row,Structure (SMILES),Potency
1,COc1ccc(Br)c(/C=N/NC(=O)COc2ccc(-c3ccccc3)cc2)c1,"inconclusive: 20 µM [inhibitor, single point]"
2,Cc1ccc(S(=O)(=O)N2CCOCC2)cc1C(=O)NC1=NCCS1,"inconclusive: 89.1 µM [inhibitor, single point]"
3,COC(=O)c1ccc(Oc2nc(NC(C)C)nc(N(C)C)n2)cc1,"inconclusive: 39.8 µM [inhibitor, single point]"
4,Cc1cc2oc(C(=O)Nc3ccc(S(=O)(=O)Nc4nccs4)cc3)cc(=O)c2cc1Cl,"inconclusive: 50.1 µM [inhibitor, partial curve, poor fit]"
5,C=C1C(=O)O[C@@H]2C[C@@H](C)[C@@H]3C=CC(=O)[C@@]3(C)[C@@H](OC(C)=O)[C@H]12,"inconclusive: 31.6 µM [inhibitor, partial curve, poor fit]"
6,CCOC(=O)CSc1nc2sc3c(c2c(=O)n1Cc1ccccc1)CC(C(C)C)OC3 (stereo unspecified),"inconclusive: 89.1 µM [inhibitor, single point]"
7,CCCNC(=O)c1csc(Nc2cccc3ccccc23)n1,"inconclusive: 70.8 µM [inhibitor, single point]"
8,O=C(O)Cc1sc(Nc2ccc(Cl)cc2)nc1-c1cccs1,inactive
9,CCOC(=O)c1ccc(NC(=O)CSc2nnc(CCc3ccc(C)o3)n2-c2ccccc2)cc1,"inconclusive: 11.2 µM [inhibitor, partial curve, poor fit]"
10,Cc1ccccc1C(=O)Nc1cccc(NC(=O)c2ccc(C(C)(C)C)cc2)c1,"inconclusive: 100 µM [inhibitor, partial curve, poor fit]"
11,COc1ccc(Cn2c(SCC(=O)N3CCN(c4ccc(F)cc4)CC3)nc3ccccc32)cc1,inactive
12,O=C(CN1CCN(Cc2ccc(F)cc2)C1=O)NCc1ccc(F)cc1,inactive
13,COCCNC(=O)Cn1c(-c2cccs2)cc2cc(Cl)ccc21,"inconclusive: 89.1 µM [inhibitor, partial curve, poor fit]"
14,O=C(Cn1cc(COc2c(F)c(F)cc(F)c2F)nn1)c1ccc(O)cc1,"inconclusive: 20 µM [inhibitor, partial curve, poor fit]"
15,CCC1=NN2C(=N)/C(=C\c3cccn3-c3cccc(Cl)c3)C(=O)N=C2S1,"inconclusive: 20 µM [inhibitor, full curve, poor fit]"
16,CC1CCc2c(sc(NC(=O)COC(=O)c3ccc(O)cc3)c2C#N)C1 (stereo unspecified),"inconclusive: 15.8 µM [inhibitor, partial curve, poor fit]"
17,COc1ccc(NC(=O)COC(=O)CC2CCCC2)cc1Cl,"inconclusive: 89.1 µM [inhibitor, single point]"
18,COc1ccc(C(=O)/C=C/Sc2nc3ccccc3o2)cc1,"inconclusive: 3.55 µM [inhibitor, full curve, poor fit]"
19,Cc1cccc(C2=NN(c3ccc(Br)cc3)[C@@H](C(=O)N3CCOC3=O)[C@@H]2C)c1,"inconclusive: 28.2 µM [inhibitor, single point]"
20,COc1cc(C(=O)NCCc2sc(-c3ccc(C)cc3)nc2C)cc(OC)c1OC,"inconclusive: 89.1 µM [inhibitor, single point]"
21,CCN1/C(=C\c2ccc3ccccc3[n+]2CC)Sc2cc(C)ccc21,"inconclusive: 20 µM [inhibitor, full curve, poor fit]"

row,Structure (SMILES),Potency
1,COC(=O)CC1(c2cccc3ccccc23)C(=O)c2ccccc2C1=O,"inconclusive: 3.98 µM [inhibitor, full curve, poor fit]"
2,O=C(CNc1ccccc1)N/N=C/c1c[nH]c2ccccc12,"inconclusive: 8.91 µM [inhibitor, partial curve, poor fit]"
3,O=C(CCCCn1cnc2c(=S)nc[nH]c21)Nc1ccc(C(=O)O)cc1,"inconclusive: 7.08 µM [inhibitor, partial curve, poor fit]"
4,Cc1ccc(-c2noc(-c3ccc(N4CCOCC4)c([N+](=O)[O-])c3)n2)cc1,inactive
5,O=[N+]([O-])c1cc(-c2nc(-c3ccccc3)no2)ccc1NCc1ccco1,inactive
6,O=C(C[N+]1(CCO)CCOCC1)c1cccs1,inactive
7,COc1ccc(CNc2nc3c(c(=O)[nH]c(=O)n3C)n2Cc2ccccc2C)cc1,"inconclusive: 79.4 µM [inhibitor, partial curve, poor fit]"
8,CC(C)C[C@H]1CN([C@@H](Cc2ccc(O)cc2)CN2CCC[C@@H]2CN2C(=O)C(=O)NC[C@@H]2Cc2ccccc2)C(=O)C(=O)N1CC1CCCCCC1,"inconclusive: 28.2 µM [inhibitor, single point]"
9,Oc1ccc2ccccc2c1/C=N/c1nccs1,"inconclusive: 28.2 µM [inhibitor, partial curve, poor fit]"
10,COc1cc(C(=O)Nc2nc(OC)c(-c3ccccc3)c(OC)n2)cc(OC)c1OC,"inconclusive: 63.1 µM [inhibitor, full curve, poor fit]"
11,Cc1ccc(C2CN(CCC(N)=O)C(=O)CO2)cc1 (stereo unspecified),"inconclusive: 14.1 µM [inhibitor, partial curve]"
12,COc1cc(/C=N/N=C(N)N)ccc1OCc1ccc(Cl)cc1,inactive
13,C=CCn1c(SCc2cc(=O)n3ccsc3n2)nnc1C1CCCCC1,active: 25.1 µM
14,CC1CCC(C(C)C)C(OC(=O)COC(=O)c2ccc(N)cc2)C1 (stereo unspecified),"inconclusive: 39.8 µM [inhibitor, single point]"
15,CC(CC(=O)Nc1cccc(S(=O)(=O)N2CCCCC2)c1)c1ccccc1 (stereo unspecified),"inconclusive: 89.1 µM [inhibitor, partial curve, poor fit]"
16,O=C(O)c1ccccc1/C=N/NC(=S)NC1CCCCC1,"inconclusive: 89.1 µM [inhibitor, single point]"
17,CCOC(=O)C1=C(C)N=C2SC(C(=O)OC)=CC(=O)N2C1c1ccc(F)cc1 (stereo unspecified),"inconclusive: 20 µM [inhibitor, full curve, poor fit]"
18,CCc1ccc(NC(=O)Cn2c(=O)c3cccn3c3ccccc32)cc1,"inconclusive: 79.4 µM [inhibitor, partial curve]"
19,COc1ccc(NC(=O)CSc2nnc(N)s2)cc1,"inconclusive: 89.1 µM [inhibitor, single point]"
20,CCOC(=O)c1ccoc1CSCc1ccc(C(=O)OC)o1,"inconclusive: 39.8 µM [inhibitor, single point]"
21,Nc1nc2cc(S(=O)(=O)NC3=NCCCCC3)ccc2s1,"inconclusive: 28.2 µM [inhibitor, single point]"

# Reprinted at random: 2 records from the list
row,Structure (SMILES),Potency
8,CC(C)C[C@H]1CN([C@@H](Cc2ccc(O)cc2)CN2CCC[C@@H]2CN2C(=O)C(=O)NC[C@@H]2Cc2ccccc2)C(=O)C(=O)N1CC1CCCCCC1,"inconclusive: 28.2 µM [inhibitor, single point]"
1,COC(=O)CC1(c2cccc3ccccc23)C(=O)c2ccccc2C1=O,"inconclusive: 3.98 µM [inhibitor, full curve, poor fit]"

# Continued.

row,Structure (SMILES),Potency
1,CS(=O)(=O)c1ccc(Cl)c(NC(=O)COC(=O)C23CC4CC(CC(C4)C2)C3)c1,inactive
2,c1ccc2[nH]c(SCc3cscn3)nc2c1,"inconclusive: 39.8 µM [inhibitor, partial curve, poor fit]"
3,COc1cccc(C(=O)Nc2ccc(NC(=O)c3ccco3)c(Cl)c2)c1,"inconclusive: 56.2 µM [inhibitor, partial curve, poor fit]"
4,O=C(NNC(=O)c1cc(-c2ccco2)nc2ccccc12)c1ccccc1,"inconclusive: 56.2 µM [inhibitor, partial curve, poor fit]"
5,Cc1ccc(C)c(-n2c(Cc3cc(=O)[nH]c(=O)[nH]3)nnc2SCC(=O)NCc2ccco2)c1,"inconclusive: 25.1 µM [inhibitor, partial curve, poor fit]"
6,O=C(COc1ccc2ccccc2c1)NNC(=O)C(=O)Nc1ccccc1,"inconclusive: 56.2 µM [inhibitor, partial curve, poor fit]"
7,COc1cccc2oc3cc(C#Cc4ccccn4)ccc3c(=O)c12,"inconclusive: 28.2 µM [inhibitor, full curve, poor fit]"
8,COCC(C)n1c(C)cc(C(=O)COC(=O)c2nc3nc(C)cc(C)n3n2)c1C (stereo unspecified),"inconclusive: 35.5 µM [inhibitor, partial curve]"
9,CC1CCN(c2ccc(C(=O)NCCc3ccccc3)cn2)CC1,"inconclusive: 44.7 µM [inhibitor, partial curve, poor fit]"
10,Nc1ccc(S(=O)(=O)N2CCOCC2)cc1,inactive
11,COc1ccc(-c2nnc(SCc3ccccn3)n2C)cc1,"inconclusive: 8.91 µM [inhibitor, single point]"
12,CCOc1ccc(NC(=O)CSc2ncc(S(=O)(=O)c3ccc(F)c(C)c3)c(=O)[nH]2)cc1,"inconclusive: 63.1 µM [inhibitor, partial curve, poor fit]"
13,S=c1[nH]nc(-c2ccco2)n1/N=C/C(Cl)=C/c1ccccc1,"inconclusive: 50.1 µM [inhibitor, partial curve, poor fit]"
14,Cc1ccc(-c2nc3c4ccccc4ccn3c2CN2CCCCC2)cc1,"inconclusive: 39.8 µM [inhibitor, single point]"
15,COc1ccc(NC(=O)Cn2c(=O)n(CCCC(=O)NCc3ccccc3Cl)c(=O)c3ccccc32)c(OC)c1,"inconclusive: 100 µM [inhibitor, single point]"
16,CCc1ccc(C(c2ccccc2)c2c(C)[nH]c3ccccc23)s1 (stereo unspecified),inactive
17,Cc1ccc(NS(=O)(=O)c2ccc(N/N=C/c3ccccc3OCC(=O)O)c([N+](=O)[O-])c2)c(C)c1,"inconclusive: 31.6 µM [inhibitor, partial curve, poor fit]"
18,Cc1ccc(C(=O)Nc2cccc(-c3ccc(N4CCOCC4)nn3)c2)cc1,"inconclusive: 89.1 µM [inhibitor, single point]"
19,CCCCC(=O)Nc1nc(C)c(-c2csc(Nc3cc(Cl)ccc3OC)n2)s1,"inconclusive: 31.6 µM [inhibitor, single point]"
